According to PMC12464768:
These are yes or no findings as the source states them, for the method shown. Binding seen in cells or lysates may run through a third protein. Some binding calls cover weakened binding; strength is not graded here. Tags and fused reporters may be left off the sequences shown. One block for each molecule: values may come before it.

Protein sequences, listed by entry. Tags and fused reporters are not part of them.
UniProt P35372: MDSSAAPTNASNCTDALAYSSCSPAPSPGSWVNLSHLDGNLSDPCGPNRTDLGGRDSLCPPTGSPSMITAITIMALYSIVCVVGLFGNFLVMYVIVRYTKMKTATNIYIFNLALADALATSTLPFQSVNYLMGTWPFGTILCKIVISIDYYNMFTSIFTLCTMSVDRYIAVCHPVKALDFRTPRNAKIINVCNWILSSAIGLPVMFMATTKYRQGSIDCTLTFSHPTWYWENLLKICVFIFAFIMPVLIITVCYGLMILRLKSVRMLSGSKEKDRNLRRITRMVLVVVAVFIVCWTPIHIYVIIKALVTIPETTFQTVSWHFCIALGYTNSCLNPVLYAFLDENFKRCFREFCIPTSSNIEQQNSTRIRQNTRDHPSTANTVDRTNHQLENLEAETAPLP
UniProt Q9C0D3: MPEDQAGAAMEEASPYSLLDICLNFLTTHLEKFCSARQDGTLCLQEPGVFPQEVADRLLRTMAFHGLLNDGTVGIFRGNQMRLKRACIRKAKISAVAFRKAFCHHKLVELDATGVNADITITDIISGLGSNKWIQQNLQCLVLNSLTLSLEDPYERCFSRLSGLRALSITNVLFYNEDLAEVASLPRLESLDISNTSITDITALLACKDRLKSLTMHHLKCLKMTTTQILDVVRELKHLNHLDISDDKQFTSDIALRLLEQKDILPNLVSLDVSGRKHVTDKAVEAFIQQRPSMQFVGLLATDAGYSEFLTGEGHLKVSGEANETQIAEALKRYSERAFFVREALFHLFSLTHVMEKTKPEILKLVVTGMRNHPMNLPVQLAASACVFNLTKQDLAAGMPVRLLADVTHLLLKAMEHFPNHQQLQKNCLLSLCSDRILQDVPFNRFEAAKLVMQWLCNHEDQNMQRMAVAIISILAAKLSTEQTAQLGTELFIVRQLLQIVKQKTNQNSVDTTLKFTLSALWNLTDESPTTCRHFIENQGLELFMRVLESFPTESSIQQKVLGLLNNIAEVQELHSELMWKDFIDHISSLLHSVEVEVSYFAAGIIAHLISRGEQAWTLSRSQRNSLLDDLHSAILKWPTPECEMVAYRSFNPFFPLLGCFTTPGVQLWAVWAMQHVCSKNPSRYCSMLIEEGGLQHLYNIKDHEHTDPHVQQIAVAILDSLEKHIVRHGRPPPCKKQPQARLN
UniProt P32121: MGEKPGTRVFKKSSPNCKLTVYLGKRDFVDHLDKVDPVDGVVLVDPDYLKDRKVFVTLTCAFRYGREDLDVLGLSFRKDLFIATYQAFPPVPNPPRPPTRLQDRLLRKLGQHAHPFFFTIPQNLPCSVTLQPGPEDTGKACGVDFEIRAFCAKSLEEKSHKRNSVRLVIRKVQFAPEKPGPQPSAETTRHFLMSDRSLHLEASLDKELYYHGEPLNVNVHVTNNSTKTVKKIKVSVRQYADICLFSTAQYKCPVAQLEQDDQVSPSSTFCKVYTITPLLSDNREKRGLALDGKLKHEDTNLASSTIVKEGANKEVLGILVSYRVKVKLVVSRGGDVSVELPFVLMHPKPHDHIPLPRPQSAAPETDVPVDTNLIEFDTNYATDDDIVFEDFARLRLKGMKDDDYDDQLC

Assays:
[1] = target: Flag-tagged human μ-opioid receptor (human) (UniProt P35372); assay: proximity ligation; HEK293T transfected with Flag-tagged hMOR and HA-tagged proteins, fixed and subjected to PLA imaging
[2] = target: Flag-tagged human μ-opioid receptor (human) (UniProt P35372); assay: co-IP; HEK293T transfected with Flag-tagged hMOR and HA-tagged interacting proteins; lysates immunoprecipitated with an anti-Flag antibody, eluates blotted with an anti-HA antibody

binding [1]: binds
binding [2]: binds
Molecule: HA-tagged ZYG11B (from UniProt Q9C0D3 1-744)

binding [1]: binds
binding [2]: binds
Molecule: HA-tagged β-arrestin-2 (from UniProt P32121 1-409)

binding [1]: binds
binding [2]: binds
B1: HA-tagged Septin7 (protein, UniProt Q16181 1-437)
chain: MSVSARSAAAEERSVNSSTMVAQQKNLEGYVGFANLPNQVYRKSVKRGFEFTLMVVGESGLGKSTLINSLFLTDLYSPEYPGPSHRIKKTVQVEQSKVLIKEGGVQLLLTIVDTPGFGDAVDNSNCWQPVIDYIDSKFEDYLNAESRVNRRQMPDNRVQCCLYFIAPSGHGLKPLDIEFMKRLHEKVNIIPLIAKADTLTPEECQQFKKQIMKEIQEHKIKIYEFPETDDEEENKLVKKIKDRLPLAVVGSNTIIEVNGKRVRGRQYPWGVAEVENGEHCDFTILRNMLIRTHMQDLKDVTNNVHYENYRSRKLAAVTYNGVDNNKNKGQLTKSPLAQMEEERREHVAKMKKMEMEMEQVFEMKVKEKVQKLKDSEAELQRRHEQMKKNLEAQHKELEEKRRQFEDEKANWEAQQRILEQQNSSRTLEKNKKKGKIF
